Patent publication US5508437A (Hoffmann-La Roche Inc., priority 1993, dated 1996)
Some peptides are written in HELM: one residue between dots, names in brackets for other building blocks, links after the first $.

Assays:
[1] = solid-phase peptide synthesis; details: for crude mass / isolated mass / isolated yield: whole synthesis; for isolated yield: scale of the general procedure 6 g of Boc-Phe-PAM resin
[2] = general procedure: Fmoc solid-phase peptide synthesis; PAL; DCC/HOBt; details: whole synthesis
[3] = Boc solid-phase peptide synthesis; BHA; DCC/HOBt; details: whole synthesis
[4] = general procedure: Fmoc solid-phase peptide synthesis; PAL resin; DCC/HOBt; details: whole synthesis

Row | Substance | crude mass [1] | isolated mass [1] | isolated yield [1] | crude mass [2] | crude mass [3] | step yield ([1]; late stage modification step) | crude mass [4]
1 | PEPTIDE1{[desaminoPhe(4-CH2COOH)].M.G.W.M.D.F.[am]}$$$$V2.0 | 733 mg | 8 mg | 38% |  |  |  | 
2 | PEPTIDE1{[desNH2-Phe(4-tetrazole)].K.G.W.M.D.[NMePhe].[am]}$PEPTIDE1,PEPTIDE1,2:R3-6:R3$$$V2.0 | 439 mg | 15 mg | 13.7% |  |  |  | 
3 | PEPTIDE1{[desNH2-Phe(4-CH2COOH)].[Nle].G.W.[Nle].D.[NMePhe].[am]}$$$$V2.0 |  | 10 mg | 6.2% | 240 mg |  |  | 
4 | PEPTIDE1{[desaminoPhe(4-CH2-tetrazole)].[Nle].G.W.[Nle].D.[NMePhe].[am]}$$$$V2.0 |  | 16 mg | 17.7% |  | 400 mg |  | 
5 | PEPTIDE1{[ac].[D-Phe(4-CH2COOEt)].M.G.W.M.[Asp(OEt)].F.[am]}$$$$V2.0 |  |  |  |  |  | 49% | 
6 | PEPTIDE1{[desNH2-Phe(4-CH2COOH)].M.G.W.M.D.[NMePhe].[am]}$$$$V2.0 |  | 12 mg | 7.2% | 268 mg |  |  | 
7 | PEPTIDE1{[ac].[Phe(4-CH2CH2COOH)].M.G.W.M.D.F.[am]}$$$$V2.0 | 831 mg | 17 mg | 29% |  |  |  | 
8 | PEPTIDE1{[desaminoPhe(4-CH2COOH)].[Nle].[dA].W.[Nle].D.[NMePhe].[am]}$$$$V2.0 |  | 20 (12.1%) mg | 12.1% |  |  |  | 300 mg
9 | PEPTIDE1{[desaminoPhe(4-tetrazole)].M.G.W.M.D.F.[am]}$$$$V2.0 |  | 15 mg | 10.8% |  | 340 mg |  | 
